Experimental data reported in publication PMC7283227.
No constants are given. Whether binding was seen depends on the method and setting. Binding seen in cells or lysates may run through a third protein. Some entries that bind do so weakly or less than the wild type.

By UniProt entry, the sequences of proteins in these tests, tags left out. Residues count along the entry.
UniProt P24821, residues 23-2201: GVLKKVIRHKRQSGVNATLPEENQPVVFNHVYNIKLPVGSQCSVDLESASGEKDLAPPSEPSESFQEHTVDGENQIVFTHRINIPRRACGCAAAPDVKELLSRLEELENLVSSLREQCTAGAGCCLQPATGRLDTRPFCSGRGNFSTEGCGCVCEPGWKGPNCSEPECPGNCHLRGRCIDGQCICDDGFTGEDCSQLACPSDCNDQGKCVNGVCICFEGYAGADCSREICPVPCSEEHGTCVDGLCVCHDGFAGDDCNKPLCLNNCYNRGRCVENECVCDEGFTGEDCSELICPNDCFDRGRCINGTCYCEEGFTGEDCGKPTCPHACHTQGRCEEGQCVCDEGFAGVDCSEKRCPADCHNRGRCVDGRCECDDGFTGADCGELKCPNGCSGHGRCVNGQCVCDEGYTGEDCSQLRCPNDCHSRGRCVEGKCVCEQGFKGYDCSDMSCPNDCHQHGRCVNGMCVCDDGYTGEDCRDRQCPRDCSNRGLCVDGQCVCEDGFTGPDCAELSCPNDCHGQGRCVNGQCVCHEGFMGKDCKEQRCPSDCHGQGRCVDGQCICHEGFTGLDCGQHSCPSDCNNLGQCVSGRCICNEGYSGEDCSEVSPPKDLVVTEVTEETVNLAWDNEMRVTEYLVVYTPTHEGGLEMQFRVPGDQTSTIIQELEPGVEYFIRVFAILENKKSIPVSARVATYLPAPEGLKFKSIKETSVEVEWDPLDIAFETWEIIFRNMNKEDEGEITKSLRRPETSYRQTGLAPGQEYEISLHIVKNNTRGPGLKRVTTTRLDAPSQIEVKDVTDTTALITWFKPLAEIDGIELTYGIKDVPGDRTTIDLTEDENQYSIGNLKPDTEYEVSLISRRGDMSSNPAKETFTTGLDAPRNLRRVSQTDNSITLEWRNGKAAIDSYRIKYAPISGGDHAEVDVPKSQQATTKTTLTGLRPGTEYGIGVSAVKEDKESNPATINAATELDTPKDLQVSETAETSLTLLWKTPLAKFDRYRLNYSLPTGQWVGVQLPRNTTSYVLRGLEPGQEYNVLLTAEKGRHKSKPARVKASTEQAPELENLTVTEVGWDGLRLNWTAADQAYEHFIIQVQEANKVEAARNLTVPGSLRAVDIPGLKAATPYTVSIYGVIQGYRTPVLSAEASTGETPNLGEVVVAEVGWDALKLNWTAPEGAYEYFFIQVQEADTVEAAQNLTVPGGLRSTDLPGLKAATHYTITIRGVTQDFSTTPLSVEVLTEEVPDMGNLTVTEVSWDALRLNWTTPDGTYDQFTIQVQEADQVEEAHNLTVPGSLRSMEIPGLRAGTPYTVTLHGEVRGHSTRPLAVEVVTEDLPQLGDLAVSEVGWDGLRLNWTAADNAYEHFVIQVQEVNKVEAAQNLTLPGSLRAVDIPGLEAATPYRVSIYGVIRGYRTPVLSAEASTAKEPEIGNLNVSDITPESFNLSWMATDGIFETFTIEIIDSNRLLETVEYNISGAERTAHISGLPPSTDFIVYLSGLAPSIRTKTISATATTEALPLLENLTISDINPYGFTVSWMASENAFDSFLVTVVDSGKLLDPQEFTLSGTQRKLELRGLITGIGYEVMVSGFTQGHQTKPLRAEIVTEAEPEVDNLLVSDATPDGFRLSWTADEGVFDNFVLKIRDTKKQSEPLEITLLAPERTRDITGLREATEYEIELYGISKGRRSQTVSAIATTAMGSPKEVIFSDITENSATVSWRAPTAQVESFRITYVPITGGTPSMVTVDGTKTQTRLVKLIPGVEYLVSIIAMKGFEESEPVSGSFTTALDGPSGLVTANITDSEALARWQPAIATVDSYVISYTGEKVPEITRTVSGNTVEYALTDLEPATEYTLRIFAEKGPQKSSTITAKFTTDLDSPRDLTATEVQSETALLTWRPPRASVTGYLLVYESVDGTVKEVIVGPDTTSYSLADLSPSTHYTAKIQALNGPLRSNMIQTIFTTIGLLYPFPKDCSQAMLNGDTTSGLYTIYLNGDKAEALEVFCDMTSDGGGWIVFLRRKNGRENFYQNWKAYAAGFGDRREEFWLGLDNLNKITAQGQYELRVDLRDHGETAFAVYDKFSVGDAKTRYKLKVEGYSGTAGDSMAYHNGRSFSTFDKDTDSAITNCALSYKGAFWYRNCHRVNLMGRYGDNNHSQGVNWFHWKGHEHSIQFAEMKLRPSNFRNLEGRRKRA

Assays:
[1] = molecular target: tenascin-C (human (endogenous in HRECs)) (UniProt P24821); experiment: co-IP; lysates of HRECs incubated 72 h with 10 ng/ml IL-13, lysis buffer without SDS (25 mM Tris-HCl, 150 mM NaCl, 1% Triton X-100); precipitated with anti-PN, anti-TNC or anti-FN antibodies (IgG as control) overnight at 4 °C and agarose beads; western blot with anti-PN, anti-TNC and anti-FN
[2] = molecular target: fibronectin (human (endogenous in HRECs)), P02751; experiment: as above; settings: remark: other sources report otherwise

Row | Binder | binding [1] | binding [2]
1 | periostin (protein, UniProt Q15063 22-836) NNHYDKILAHSRIRGRDQGPNVCALQQILGTKKKYFSTCKNWYKKSICGQKTTVLYECCPGYMRMEGMKGCPAVLPIDHVYGTLGIVGATTTQRYSDASKLREEIEGKGSFTYFAPSNEAWDNLDSDIRRGLESNVNVELLNALHSHMINKRMLTKDLKNGMIIPSMYNNLGLFINHYPNGVVTVNCARIIHGNQIATNGVVHVIDRVLTQIGTSIQDFIEAEDDLSSFRAAAITSDILEALGRDGHFTLFAPTNEAFEKLPRGVLERIMGDKVASEALMKYHILNTLQCSESIMGGAVFETLEGNTIEIGCDGDSITVNGIKMVNKKDIVTNNGVIHLIDQVLIPDSAKQVIELAGKQQTTFTDLVAQLGLASALRPDGEYTLLAPVNNAFSDDTLSMDQRLLKLILQNHILKVKVGLNELYNGQILETIGGKQLRVFVYRTAVCIENSCMEKGSKQGRNGAIHIFREIIKPAEKSLHEKLKQDKRFSTFLSLLEAADLKELLTQPGDWTLFVPTNDAFKGMTSEEKEILIRDKNALQNIILYHLTPGVFIGKGFEPGVTNILKTTQGSKIFLKEVNDTLLVNELKSKESDIMTTNGVIHVVDKLLYPADTPVGNDQLLEILNKLIKYIQIKFVRGSTFKEIPVTVYTTKIITKVVEPKIKVIEGSLQPIIKTEGPTLTKVKIEGEPEFRLIKEGETITEVIHGEPIIKKYTKIIDGVPVEITEKETREERIITGPEIKYTRISTGGGETEETLKKLLQEEVTKVTKFIEGGDGHLFEDEEIKRLLQGDTPVRKLQANKKVQGSRRRLREGRSQ | binds | 
2 | periostin, Q15063 22-836 (protein) NNHYDKILAHSRIRGRDQGPNVCALQQILGTKKKYFSTCKNWYKKSICGQKTTVLYECCPGYMRMEGMKGCPAVLPIDHVYGTLGIVGATTTQRYSDASKLREEIEGKGSFTYFAPSNEAWDNLDSDIRRGLESNVNVELLNALHSHMINKRMLTKDLKNGMIIPSMYNNLGLFINHYPNGVVTVNCARIIHGNQIATNGVVHVIDRVLTQIGTSIQDFIEAEDDLSSFRAAAITSDILEALGRDGHFTLFAPTNEAFEKLPRGVLERIMGDKVASEALMKYHILNTLQCSESIMGGAVFETLEGNTIEIGCDGDSITVNGIKMVNKKDIVTNNGVIHLIDQVLIPDSAKQVIELAGKQQTTFTDLVAQLGLASALRPDGEYTLLAPVNNAFSDDTLSMDQRLLKLILQNHILKVKVGLNELYNGQILETIGGKQLRVFVYRTAVCIENSCMEKGSKQGRNGAIHIFREIIKPAEKSLHEKLKQDKRFSTFLSLLEAADLKELLTQPGDWTLFVPTNDAFKGMTSEEKEILIRDKNALQNIILYHLTPGVFIGKGFEPGVTNILKTTQGSKIFLKEVNDTLLVNELKSKESDIMTTNGVIHVVDKLLYPADTPVGNDQLLEILNKLIKYIQIKFVRGSTFKEIPVTVYTTKIITKVVEPKIKVIEGSLQPIIKTEGPTLTKVKIEGEPEFRLIKEGETITEVIHGEPIIKKYTKIIDGVPVEITEKETREERIITGPEIKYTRISTGGGETEETLKKLLQEEVTKVTKFIEGGDGHLFEDEEIKRLLQGDTPVRKLQANKKVQGSRRRLREGRSQ |  | binds
